Data reported in paper PMC6061700 (Toxicological Sciences, 2018).

Experiments:
[1] = tested on: Cellular Dynamics International [CDI] human stem cell-derived cardiomyocytes
[2] = tested on: human induced pluripotent stem cell-derived cardiomyocytes (hiPSC-CMs)

In the case of `Cc1cccc(CCN2CCC(C(=O)c3ccc(NS(C)(=O)=O)cc3)CC2)n1` [E-4031], the effect on beating [1] was “cessation of beating”, the “FPDc20: median” value [2] was 3 nM and the “FPDc20: span” value [2] was 1 log unit.
